Data reported in PMC8214149.
These are yes or no findings as the source states them, for the method shown. Binding seen in cells or lysates may run through a third protein. Some binding calls cover weakened binding; strength is not graded here.

Chains of the proteins cited; added tags and fusions are not shown.
UniProt Q01939: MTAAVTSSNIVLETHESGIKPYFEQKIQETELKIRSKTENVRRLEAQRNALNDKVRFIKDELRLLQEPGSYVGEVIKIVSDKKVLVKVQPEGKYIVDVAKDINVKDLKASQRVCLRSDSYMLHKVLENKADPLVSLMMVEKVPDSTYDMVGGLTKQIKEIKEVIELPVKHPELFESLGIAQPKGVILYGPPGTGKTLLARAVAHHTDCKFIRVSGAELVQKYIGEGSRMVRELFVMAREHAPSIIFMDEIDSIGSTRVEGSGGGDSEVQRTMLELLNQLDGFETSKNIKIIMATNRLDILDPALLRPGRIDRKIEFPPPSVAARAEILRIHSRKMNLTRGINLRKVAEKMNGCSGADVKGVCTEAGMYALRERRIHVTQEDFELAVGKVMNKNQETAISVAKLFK
UniProt P40327: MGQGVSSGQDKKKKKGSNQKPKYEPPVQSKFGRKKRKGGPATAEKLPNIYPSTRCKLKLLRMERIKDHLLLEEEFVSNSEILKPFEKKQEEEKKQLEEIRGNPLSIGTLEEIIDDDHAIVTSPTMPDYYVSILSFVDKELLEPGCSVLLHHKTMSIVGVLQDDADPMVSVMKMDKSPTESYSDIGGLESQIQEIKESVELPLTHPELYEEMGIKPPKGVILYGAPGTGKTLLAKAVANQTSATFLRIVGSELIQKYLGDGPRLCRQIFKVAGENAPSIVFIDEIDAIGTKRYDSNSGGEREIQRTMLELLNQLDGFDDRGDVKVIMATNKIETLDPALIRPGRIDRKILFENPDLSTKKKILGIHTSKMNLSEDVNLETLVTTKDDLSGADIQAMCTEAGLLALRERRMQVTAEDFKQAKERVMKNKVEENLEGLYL
UniProt P38737: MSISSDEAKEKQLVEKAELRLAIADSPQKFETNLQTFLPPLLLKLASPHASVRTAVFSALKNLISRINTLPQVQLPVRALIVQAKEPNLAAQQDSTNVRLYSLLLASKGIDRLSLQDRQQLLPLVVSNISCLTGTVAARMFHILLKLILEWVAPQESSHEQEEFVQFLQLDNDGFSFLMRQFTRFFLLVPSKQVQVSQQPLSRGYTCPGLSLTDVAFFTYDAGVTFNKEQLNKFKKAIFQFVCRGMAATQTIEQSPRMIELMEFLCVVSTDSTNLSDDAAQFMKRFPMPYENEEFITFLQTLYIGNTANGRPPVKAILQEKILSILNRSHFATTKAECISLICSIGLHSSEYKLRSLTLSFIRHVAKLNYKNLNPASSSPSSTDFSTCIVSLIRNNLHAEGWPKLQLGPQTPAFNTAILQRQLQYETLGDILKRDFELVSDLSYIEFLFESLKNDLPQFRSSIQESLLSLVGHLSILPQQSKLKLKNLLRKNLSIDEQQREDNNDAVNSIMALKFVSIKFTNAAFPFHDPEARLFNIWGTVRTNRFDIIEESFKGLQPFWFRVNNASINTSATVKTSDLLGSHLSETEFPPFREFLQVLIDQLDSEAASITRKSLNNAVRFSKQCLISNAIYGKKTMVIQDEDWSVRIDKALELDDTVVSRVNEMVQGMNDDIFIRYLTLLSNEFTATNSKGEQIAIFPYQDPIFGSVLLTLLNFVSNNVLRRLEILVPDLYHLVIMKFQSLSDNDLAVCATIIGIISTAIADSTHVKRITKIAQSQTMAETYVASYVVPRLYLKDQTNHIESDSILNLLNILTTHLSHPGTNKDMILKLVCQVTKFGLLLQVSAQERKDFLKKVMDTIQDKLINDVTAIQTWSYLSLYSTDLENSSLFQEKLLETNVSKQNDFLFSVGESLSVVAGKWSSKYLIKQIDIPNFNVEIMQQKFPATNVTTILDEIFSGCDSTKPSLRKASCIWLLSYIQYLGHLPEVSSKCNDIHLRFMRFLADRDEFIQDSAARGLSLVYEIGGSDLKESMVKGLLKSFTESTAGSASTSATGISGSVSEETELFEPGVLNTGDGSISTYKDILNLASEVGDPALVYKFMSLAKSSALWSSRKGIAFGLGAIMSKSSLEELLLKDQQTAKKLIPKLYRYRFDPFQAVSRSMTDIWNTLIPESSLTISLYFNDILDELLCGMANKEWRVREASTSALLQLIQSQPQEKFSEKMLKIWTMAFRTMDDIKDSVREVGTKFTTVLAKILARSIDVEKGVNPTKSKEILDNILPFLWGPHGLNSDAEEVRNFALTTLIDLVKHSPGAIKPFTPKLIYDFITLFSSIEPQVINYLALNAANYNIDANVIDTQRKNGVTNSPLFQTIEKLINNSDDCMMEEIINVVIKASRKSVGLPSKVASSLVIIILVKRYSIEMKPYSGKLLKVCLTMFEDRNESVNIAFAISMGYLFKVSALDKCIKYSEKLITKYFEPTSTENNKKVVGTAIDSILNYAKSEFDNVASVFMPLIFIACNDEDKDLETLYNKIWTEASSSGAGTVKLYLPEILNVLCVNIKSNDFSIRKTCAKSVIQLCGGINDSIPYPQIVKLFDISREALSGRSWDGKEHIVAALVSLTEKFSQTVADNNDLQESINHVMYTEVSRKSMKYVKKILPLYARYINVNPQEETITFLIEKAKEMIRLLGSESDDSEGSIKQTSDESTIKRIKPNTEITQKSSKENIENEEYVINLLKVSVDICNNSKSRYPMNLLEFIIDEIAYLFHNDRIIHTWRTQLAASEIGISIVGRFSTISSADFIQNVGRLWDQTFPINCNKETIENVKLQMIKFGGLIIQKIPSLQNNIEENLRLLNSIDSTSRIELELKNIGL
UniProt P43593: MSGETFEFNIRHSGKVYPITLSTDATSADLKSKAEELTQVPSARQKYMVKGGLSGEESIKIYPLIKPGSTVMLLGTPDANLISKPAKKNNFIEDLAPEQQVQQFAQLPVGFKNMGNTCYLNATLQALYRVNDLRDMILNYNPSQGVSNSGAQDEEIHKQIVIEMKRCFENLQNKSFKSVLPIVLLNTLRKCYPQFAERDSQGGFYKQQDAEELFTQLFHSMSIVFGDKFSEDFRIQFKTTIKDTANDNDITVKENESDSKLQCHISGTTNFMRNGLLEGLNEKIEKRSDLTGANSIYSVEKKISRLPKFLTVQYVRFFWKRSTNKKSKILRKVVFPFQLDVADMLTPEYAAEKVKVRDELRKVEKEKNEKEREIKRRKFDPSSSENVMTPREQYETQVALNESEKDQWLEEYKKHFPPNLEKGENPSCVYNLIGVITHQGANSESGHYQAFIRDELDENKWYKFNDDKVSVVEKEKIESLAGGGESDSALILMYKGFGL

Columns and labels:
[1] = biological target: T1, Rpn1 (S. cerevisiae (endogenous in the yeast strain)) (UniProt P38764); test: cross-linking; DSSO (lysine-lysine) XL-MS of 100 μg affinity purified yeast 26S proteasome in PBS pH 7.4, 2.5 or 5 mM DSSO, 1 h 25 °C; LC-MSn; two biological replicates
T1 sequence: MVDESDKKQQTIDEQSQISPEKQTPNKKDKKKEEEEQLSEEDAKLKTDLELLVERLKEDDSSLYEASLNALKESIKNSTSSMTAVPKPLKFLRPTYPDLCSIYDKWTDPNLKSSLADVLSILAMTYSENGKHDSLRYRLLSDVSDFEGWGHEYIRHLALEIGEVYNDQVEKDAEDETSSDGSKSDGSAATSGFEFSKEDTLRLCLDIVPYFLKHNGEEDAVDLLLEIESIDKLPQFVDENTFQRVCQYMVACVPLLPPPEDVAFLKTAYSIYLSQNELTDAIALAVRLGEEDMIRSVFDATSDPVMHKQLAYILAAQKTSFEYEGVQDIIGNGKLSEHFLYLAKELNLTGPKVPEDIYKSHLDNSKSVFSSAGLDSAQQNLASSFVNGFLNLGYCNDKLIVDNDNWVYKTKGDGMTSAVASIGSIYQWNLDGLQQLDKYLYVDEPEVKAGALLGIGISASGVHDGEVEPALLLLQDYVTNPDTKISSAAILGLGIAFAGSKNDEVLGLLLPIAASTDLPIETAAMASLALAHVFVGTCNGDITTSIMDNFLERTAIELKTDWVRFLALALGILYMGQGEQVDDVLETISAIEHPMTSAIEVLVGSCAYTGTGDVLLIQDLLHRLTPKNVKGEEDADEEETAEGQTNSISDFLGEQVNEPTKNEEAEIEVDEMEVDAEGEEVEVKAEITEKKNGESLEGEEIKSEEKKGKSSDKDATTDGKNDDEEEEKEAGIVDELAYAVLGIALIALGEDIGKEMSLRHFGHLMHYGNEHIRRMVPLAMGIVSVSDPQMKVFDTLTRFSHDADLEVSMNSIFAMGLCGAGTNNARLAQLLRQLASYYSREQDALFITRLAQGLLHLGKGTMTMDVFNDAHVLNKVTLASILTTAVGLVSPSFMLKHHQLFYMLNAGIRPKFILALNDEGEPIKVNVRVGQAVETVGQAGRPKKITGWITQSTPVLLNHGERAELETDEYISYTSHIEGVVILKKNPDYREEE

[2] = biological target: T2, Rpn6 (S. cerevisiae (endogenous in the yeast strain)) (UniProt Q12377); test: as above
T2 sequence: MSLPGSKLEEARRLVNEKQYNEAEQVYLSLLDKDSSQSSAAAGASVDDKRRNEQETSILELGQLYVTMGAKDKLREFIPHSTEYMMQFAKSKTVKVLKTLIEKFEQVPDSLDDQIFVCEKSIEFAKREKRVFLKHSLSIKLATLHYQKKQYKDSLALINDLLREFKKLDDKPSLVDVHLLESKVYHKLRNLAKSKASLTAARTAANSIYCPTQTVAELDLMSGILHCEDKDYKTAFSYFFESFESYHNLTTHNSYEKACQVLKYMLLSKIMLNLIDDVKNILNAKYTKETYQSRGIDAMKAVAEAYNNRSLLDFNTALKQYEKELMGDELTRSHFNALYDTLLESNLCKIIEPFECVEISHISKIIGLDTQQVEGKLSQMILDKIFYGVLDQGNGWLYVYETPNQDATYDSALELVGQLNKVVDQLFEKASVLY

[3] = biological target: T3, Rpt1 (S. cerevisiae (endogenous in the yeast strain)) (UniProt P33299); test: as above
T3 sequence: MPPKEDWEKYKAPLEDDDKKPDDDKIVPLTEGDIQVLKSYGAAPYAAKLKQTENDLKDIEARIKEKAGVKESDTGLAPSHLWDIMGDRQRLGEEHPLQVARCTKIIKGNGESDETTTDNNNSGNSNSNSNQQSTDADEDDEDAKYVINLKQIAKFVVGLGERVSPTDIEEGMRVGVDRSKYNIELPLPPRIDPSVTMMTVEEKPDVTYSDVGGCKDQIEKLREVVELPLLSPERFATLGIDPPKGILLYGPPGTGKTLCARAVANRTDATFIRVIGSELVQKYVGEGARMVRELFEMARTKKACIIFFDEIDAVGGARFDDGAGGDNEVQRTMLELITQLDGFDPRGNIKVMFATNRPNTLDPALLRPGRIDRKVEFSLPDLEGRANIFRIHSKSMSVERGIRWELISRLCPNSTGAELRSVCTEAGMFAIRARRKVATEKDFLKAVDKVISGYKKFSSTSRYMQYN

[4] = biological target: T4, Rpt3 (S. cerevisiae (endogenous in the yeast strain)) (UniProt P33298); test: as above
T4 sequence: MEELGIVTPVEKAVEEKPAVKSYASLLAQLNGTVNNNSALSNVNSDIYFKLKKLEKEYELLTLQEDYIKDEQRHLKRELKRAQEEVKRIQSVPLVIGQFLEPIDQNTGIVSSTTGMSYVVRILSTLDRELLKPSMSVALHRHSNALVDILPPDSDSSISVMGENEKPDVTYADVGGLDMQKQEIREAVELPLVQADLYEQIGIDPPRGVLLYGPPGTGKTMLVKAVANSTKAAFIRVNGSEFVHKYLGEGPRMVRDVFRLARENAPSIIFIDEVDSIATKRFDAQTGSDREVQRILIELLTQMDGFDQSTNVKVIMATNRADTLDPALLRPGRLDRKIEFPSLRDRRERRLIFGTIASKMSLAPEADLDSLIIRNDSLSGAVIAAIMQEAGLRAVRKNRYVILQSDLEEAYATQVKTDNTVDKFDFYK

[5] = biological target: T4, Rpt3 (S. cerevisiae (endogenous in the yeast strain)); test: cross-linking; SDASO-L, -M and -S (NHS-diazirine) XL-MS of 100 μg affinity purified yeast 26S proteasome in PBS pH 7.4, 20 mM linker, 1 h 25 °C in the dark, UV 365 nm 30 min on ice; trypsin (SDASO-L also chymotrypsin) digests, LC-MSn; triplicates
[6] = biological target: Rpt6 (S. cerevisiae (endogenous in the yeast strain)) (UniProt Q01939); test: as above
[7] = biological target: Rpt2 (S. cerevisiae (endogenous in the yeast strain)) (UniProt P40327); test: cross-linking; DSSO (lysine-lysine) XL-MS of 100 μg affinity purified yeast 26S proteasome in PBS pH 7.4, 2.5 or 5 mM DSSO, 1 h 25 °C; LC-MSn; two biological replicates
[8] = biological target: T1, Rpn1 (S. cerevisiae (endogenous in the yeast strain)); test: cross-linking; SDASO-L, -M and -S (NHS-diazirine) XL-MS of 100 μg affinity purified yeast 26S proteasome in PBS pH 7.4, 20 mM linker, 1 h 25 °C in the dark, UV 365 nm 30 min on ice; trypsin (SDASO-L also chymotrypsin) digests, LC-MSn; triplicates
[9] = biological target: T5, Rpn2 (S. cerevisiae (endogenous in the yeast strain)) (UniProt P32565); test: as above
T5 sequence: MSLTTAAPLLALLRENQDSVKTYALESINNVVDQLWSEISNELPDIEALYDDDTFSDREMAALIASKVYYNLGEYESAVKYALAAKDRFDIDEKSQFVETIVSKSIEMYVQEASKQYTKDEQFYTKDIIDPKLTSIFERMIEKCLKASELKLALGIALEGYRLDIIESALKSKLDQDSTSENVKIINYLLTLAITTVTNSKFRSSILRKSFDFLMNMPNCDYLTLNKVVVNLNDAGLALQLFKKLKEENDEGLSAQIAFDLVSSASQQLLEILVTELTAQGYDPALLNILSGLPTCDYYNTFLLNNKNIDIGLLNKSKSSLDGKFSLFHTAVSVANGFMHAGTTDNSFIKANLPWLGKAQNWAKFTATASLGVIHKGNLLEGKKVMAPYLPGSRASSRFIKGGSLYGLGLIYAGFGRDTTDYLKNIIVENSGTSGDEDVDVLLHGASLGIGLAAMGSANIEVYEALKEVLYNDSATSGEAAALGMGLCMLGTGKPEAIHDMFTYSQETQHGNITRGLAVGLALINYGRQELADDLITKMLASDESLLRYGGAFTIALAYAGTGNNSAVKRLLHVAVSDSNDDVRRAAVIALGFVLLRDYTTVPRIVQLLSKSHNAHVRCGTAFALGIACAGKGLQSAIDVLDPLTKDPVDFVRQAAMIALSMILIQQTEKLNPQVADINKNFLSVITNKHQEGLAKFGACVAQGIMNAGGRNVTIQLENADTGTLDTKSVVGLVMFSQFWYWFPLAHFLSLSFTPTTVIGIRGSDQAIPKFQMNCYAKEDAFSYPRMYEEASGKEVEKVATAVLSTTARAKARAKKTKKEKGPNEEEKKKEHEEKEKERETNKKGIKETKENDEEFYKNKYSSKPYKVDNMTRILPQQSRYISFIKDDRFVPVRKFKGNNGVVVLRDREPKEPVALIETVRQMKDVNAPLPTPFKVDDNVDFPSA

[10] = biological target: T6, Rpn8 (S. cerevisiae (endogenous in the yeast strain)) (UniProt Q08723); test: as above
T6 sequence: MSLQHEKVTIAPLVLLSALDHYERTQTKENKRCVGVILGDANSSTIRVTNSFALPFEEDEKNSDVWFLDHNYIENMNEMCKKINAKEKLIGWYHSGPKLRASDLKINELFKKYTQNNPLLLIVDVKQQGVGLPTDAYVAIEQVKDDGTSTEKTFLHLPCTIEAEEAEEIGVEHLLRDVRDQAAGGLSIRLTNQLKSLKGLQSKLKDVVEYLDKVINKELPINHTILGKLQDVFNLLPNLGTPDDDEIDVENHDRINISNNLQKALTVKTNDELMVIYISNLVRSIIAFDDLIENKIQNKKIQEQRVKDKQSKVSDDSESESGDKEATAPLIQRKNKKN

[11] = biological target: Rpt2 (S. cerevisiae (endogenous in the yeast strain)) (UniProt P40327); test: as above
[12] = biological target: T7, 20S core particle subunit α5 (S. cerevisiae (endogenous in the yeast strain)) (UniProt P32379); test: as above
T7 sequence: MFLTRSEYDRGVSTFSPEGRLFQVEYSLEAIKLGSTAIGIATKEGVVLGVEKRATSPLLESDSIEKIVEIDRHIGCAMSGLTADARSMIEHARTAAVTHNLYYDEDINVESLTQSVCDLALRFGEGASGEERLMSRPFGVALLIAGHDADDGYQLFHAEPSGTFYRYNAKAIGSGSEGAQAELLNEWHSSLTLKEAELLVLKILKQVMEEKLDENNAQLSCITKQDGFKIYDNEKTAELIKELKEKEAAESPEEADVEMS

Measured: binding

Ecm29 (from UniProt P38737 1-1868)
binds: [1] | [2] | [3] | [4] | [5] | [6]

Ubp6 (from UniProt P43593 1-499) (enzyme)
binds: [3] | [7] | [8] | [9] | [10] | [11]

B1: 20S core particle subunit α4 (protein, UniProt P40303 1-254)
chain: MSGYDRALSIFSPDGHIFQVEYALEAVKRGTCAVGVKGKNCVVLGCERRSTLKLQDTRITPSKVSKIDSHVVLSFSGLNADSRILIEKARVEAQSHRLTLEDPVTVEYLTRYVAGVQQRYTQSGGVRPFGVSTLIAGFDPRDDEPKLYQTEPSGIYSSWSAQTIGRNSKTVREFLEKNYDRKEPPATVEECVKLTVRSLLEVVQTGAKNIEITVVKPDSDIVALSSEEINQYVTQIEQEKQEQQEQDKKKKSNH
binds: [12]
